Measured values from PubChem BioAssay AID504444 (National Center for Advancing Translational Sciences (NCATS), 2011).
Among all 360,000 compounds or so, about 7,500 (2.1%) were called active. This list was built around the results that the source calls inconclusive (neither active nor inactive); the mix of calls is not that of the screen. Calls come from the whole dose curve; as a rule, active = well fitted inhibition curve with a large enough effect; inconclusive = small, poorly fitted or top-dose-only effect, or effect the other way; inactive = flat fitted curve, though single readings scatter. A potency beside an inconclusive call is a rough fit, not a confirmed value.
% is set by controls: 0 for no effect and ±100 for the full control effect; potency is the fitted concentration of half-maximal effect.

Test: Nrf2 qHTS screen for inhibitors; note: nearly all actives have a fitted effect of over 60% in size
Details: A549 ARE-Fluc reporter, luciferase luminescence, 18-24 h; activity change, negative = inhibition: at 46 µM (top of the series)
In short: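 Nrf2 function is reported as luminescence of an ARE-controlled luciferase in A549 cells. Compounds were tested at several concentrations, and a CellTiter-Fluor read on the same wells flagged cytotoxicity.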
For CCCCC(CC)C(=O)Nc1ccc(S(=O)(=O)N2CCCC2)cc1 (stereo not given), the Potency was inconclusive: 5.17 µM [falling, partial curve, poor fit].
In the case of CCOc1c2ccc(C(=O)NCc3ccc(C(F)(F)F)cc3C(F)(F)F)cc2nn1C, the Potency is reported as inconclusive: 7.31 µM [falling, partial curve, poor fit].
In the case of CCOc1ccc(C(=O)NCCn2cc(SCC(=O)NCCc3ccc(OC)c(OC)c3)c3ccccc32)cc1, the Potency is reported as “inactive”.
For Cc1cccc(C(=O)NNC2=C(C(=O)C(F)(F)F)CCC2)c1O, the Potency was inconclusive: 29.1 µM [falling, single point].
In the case of COc1ccccc1CCC(=O)Nc1ccc2c(c1)CN(Cc1ccc(C)o1)CC2, the Potency is reported as inconclusive: 20.6 µM [activator, single point].
For Cc1[nH]c2ccccc2c1C(=O)CN1C(=O)C(=O)N(Cc2ccco2)C1=O, the Potency was inconclusive: 3.66 µM [falling, full curve, poor fit].
For Cc1ccc(CN(C)C(=O)c2cc(Br)c(Br)s2)o1, the Potency was “inactive”.
With COc1ccc(/C=N/Nc2nccnc2Cl)c(OC)c1 the Potency was inconclusive: 8.2 µM [activator, partial curve].
For COc1ccc2cc(C(=O)NCc3ccco3)c(=Nc3ccc(C(=O)O)cc3)oc2c1, the Potency was “inactive”.
In the case of Cc1cc2oc(=O)cc(-c3ccccc3)c2c(C)c1-c1ccc(O)cc1, the Potency is reported as active: 16.4 µM.
For O=C(CC(Nc1ccccc1)C(=O)O)c1ccccc1 (stereo not given), the Potency was inconclusive: 14.6 µM [activator, partial curve].
In the case of CCC(=O)NCCc1c[nH]c2ccccc12, the Potency is reported as “inactive”.
With Cc1ccc(S(=O)(=O)Nc2ncnc3sc(C)c(C)c23)cc1 the Potency was inconclusive: 23.1 µM [falling, single point].
For NC(=O)C1=NOC(CNc2ncc(C(F)(F)F)cc2Cl)C1 (stereo not given), the Potency was inconclusive: 7.31 µM [activator, partial curve, poor fit].
For O=C(OCc1nnc(-c2ccccc2)o1)c1cc2ccccc2cc1O, the Potency was inconclusive: 2.91 µM [falling, partial curve, poor fit].
For COCCn1c(SCC(=O)c2cc(C)ccc2C)nc2cc(C(=O)NC3CCCC3)ccc2c1=O, the Potency was inconclusive: 29.1 µM [activator, single point].
In the case of CC(C)(C)c1ccc(-n2ncc3c2CCCC3NC(=O)CCN2CCCC2=O)cc1 (stereo not given), the Potency is reported as inconclusive: 3.26 µM [falling, partial curve, poor fit].
In the case of Fc1cccc(Cl)c1Cn1nnc2c(NCc3ccccn3)ncnc21, the Potency is reported as “inactive”.
For Cn1c(SCc2ccc(F)cc2)nc2ccc(C(=O)NCc3ccc(F)cc3)cc21, the Potency was active: 23.1 µM.
In the case of Cc1ccc(/C=C/C2=NN(Cc3ccccc3Cl)C(=O)CC2)cc1, the Potency is reported as “inactive”.
With O=C(NCCOc1ccccc1F)c1cccc(S(=O)(=O)N2CCN(c3ccccc3)CC2)c1 the Potency was active: 4.61 µM.
With Cc1ccc(COC(=O)c2cccc(S(=O)(=O)N3CCCCCC3)c2)cc1 the Potency was “inactive”.
With COc1ccc(C(=S)Nc2ccc(C)cc2)cc1 the Potency was inconclusive: 2.91 µM [activator, full curve].
In the case of Cc1ccc(-n2nc3c(N4CCC(C(=O)NC(C)C)CC4)nnc(C)c3c2C)cc1, the Potency is reported as inconclusive: 29.1 µM [activator, single point].
In the case of O=[N+]([O-])c1cccc(C=NN2CCCCCC2)c1, the Potency is reported as inconclusive: 7.31 µM [activator, partial curve].
For Cc1cccc(NC(=S)NC(NC(=O)OCc2ccccc2)C(Cl)(Cl)Cl)c1 (stereo not given), the Potency was inconclusive: 20.6 µM [falling, single point].
With O=C(Nc1ccc(Cl)cc1)N1CCc2ccccc2C1 the Potency was inconclusive: 6.51 µM [activator, partial curve].
For CCOC(=O)c1c(Nc2ccccc2)sc(/C=C2\C=Nc3ccccc32)c1O, the Potency was inconclusive: 9.2 µM [falling, partial curve, poor fit].
For CC(C)c1ccc(/C=C(\c2nc3ccccc3[nH]2)S(=O)(=O)c2ccccc2)cc1, the Potency was inconclusive: 29.1 µM [falling, single point].
For Cc1ccccc1OCC(=O)OCc1cc(=O)n2ccsc2n1, the Potency was inconclusive: 25.9 µM [activator, single point].
For Cc1ccc(S(=O)(=O)NCC(=O)OCCOc2ccccc2F)cc1, the Potency was inconclusive: 14.6 µM [activator, partial curve, poor fit].
For CC1C(=O)OC(c2ccc(Cl)cc2)C(C)(C)C1=O (stereo not given), the Potency was “inactive”.
In the case of Cc1ccccc1NC(=O)c1ccc(CN2CCc3ccccc3C2)cc1, the Potency is reported as inconclusive: 29.1 µM [falling, single point].
With CCOC(=O)C1CCN(C(=O)c2cc3c(=O)n4ccccc4nc3s2)CC1 the Potency was inconclusive: 20.6 µM [activator, partial curve].
In the case of Cc1nnc(SCC(=O)Nc2cc(-c3cc(C)c(C)cc3C)nn2-c2ccccc2)s1, the Potency is reported as inconclusive: 29.1 µM [falling, single point].
With O=S(=O)(NCCc1cn2ccccc2n1)c1ccc(-c2ccccc2)cc1 the Potency was active: 20.6 µM.
With CCC(C)NC(=O)c1cc2c(=O)[nH]c3ccc(C)cc3c2s1 (stereo not given) the Potency was inconclusive: 4.11 µM [falling, full curve].
For CC(=O)Nc1ccc(Cl)cc1-c1ccccc1, the Potency was inconclusive: 2.91 µM [falling, single point].
With CC(C)CNC(=O)COc1ccc(Sc2ccc(OCC(=O)NCC(C)C)cc2)cc1 the Potency was inconclusive: 9.2 µM [falling, partial curve, poor fit].
For CCCCCCCCCCCCCCCC(=O)Nc1ccn(C2OC(CO)C(O)C2O)c(=O)n1 (stereo not given), the Potency was inconclusive: 0.461 µM [falling, full curve].
For COc1ccc(C2N(c3ccc(C)cc3)CCN2c2ccc(C)cc2)cc1O, the Potency was inconclusive: 29.1 µM [activator, single point].
In the case of O=C(Nc1ccc(S(=O)(=O)NCC2CCCO2)cc1)c1cccc(F)c1 (stereo not given), the Potency is reported as inconclusive: 16.4 µM [falling, partial curve].
For Cc1ccc(C)c(S(=O)(=O)NCc2ccncc2)c1, the Potency was inconclusive: 20.6 µM [falling, partial curve].
With COc1ccc(C(=O)N/N=C/C(Br)=C/c2ccccc2)cc1 the Potency was “inactive”.
With CCc1ccc(NC(=O)c2ccc3c(c2)nnn3CC)cc1 the Potency was inconclusive: 20.6 µM [activator, single point].
With Cc1ccc([N+](=O)[O-])cc1N=C1C(=O)Nc2ccccc21 the Potency was “inactive”.
In the case of O=C(O)C1CCN(C(=O)OCc2ccccc2)CC1, the Potency is reported as inconclusive: 9.2 µM [activator, partial curve, poor fit].
With CSc1cc2c(s1)c1cnn(Cc3cccc(O)c3)c(=O)c1n2C the Potency was inconclusive: 23.1 µM [falling, partial curve, poor fit].
For O=C(NNC(=S)NCc1ccco1)C(c1ccccc1)c1ccccc1, the Potency was inconclusive: 0.058 µM [falling, full curve, poor fit].
For C=C1CC(C(=O)N/N=C/c2ccccc2)C1, the Potency was “inactive”.
For CCc1ccc(NC(=O)N2CCC(c3ccccc3)C2)cc1 (stereo not given), the Potency was inconclusive: 2.06 µM [activator, full curve].
In the case of COc1ccc(-c2cc(=O)c3cc(OC)ccc3o2)cc1, the Potency is reported as inconclusive: 2.91 µM [activator, full curve].
With Cc1ccccc1CSCCNC(=O)c1ccc(N(C)S(=O)(=O)c2ccccc2)cc1 the Potency was inconclusive: 20.6 µM [falling, single point].
With Oc1c(Br)cc(Br)cc1-c1nc2ccccc2s1 the Potency was “inactive”.
With Cc1ccsc1C(=O)NNC(=O)c1ccccc1F the Potency was inconclusive: 23.1 µM [activator, partial curve].
With CS(=O)(=O)N(CC(=O)NCCSc1ccccc1)c1cc(C(F)(F)F)ccc1Cl the Potency was “inactive”.
With CC(NC(=O)c1ccc(NS(C)(=O)=O)cc1)c1ccccc1 (stereo not given) the Potency was inconclusive: 6.51 µM [activator, single point].
In the case of O=C(Cc1csc(NC(=O)Nc2ccc(Cl)cc2)n1)NCc1ccccn1, the Potency is reported as “inactive”.
In the case of CCn1ccc(C(=O)Nc2cccc(Cl)c2)n1, the Potency is reported as inconclusive: 23.1 µM [activator, partial curve, poor fit].
For CC(=O)Nc1ccc(S(=O)(=O)Nc2cccc(-c3nc4cc(C)ccc4o3)c2)cc1, the Potency was inconclusive: 25.9 µM [falling, single point].
With CCOC(=O)CNC(=O)Nc1ccccc1C(=O)OC the Potency was “inactive”.
For Cc1ccc(S(=O)(=O)c2c(N)n(/N=C/c3ccco3)c3nc4ccccc4nc23)cc1, the Potency was inconclusive: 13 µM [falling, partial curve, poor fit].
With O=C(CN1CCN(c2ccccc2O)CC1)Nc1ccccc1C(=O)NCCc1ccccc1 the Potency was “inactive”.
With Cc1[nH]n(C(N)=S)c(=O)c1N=Nc1ccc(S(=O)(=O)N2CCCC2)cc1 the Potency was inconclusive: 0.82 µM [falling, full curve].
With COc1ccc2cc3cc(C(=O)NCCC(C)C)oc3nc2c1 the Potency was “inactive”.
For COc1ccc(Cl)cc1NC(=O)c1cc2c(s1)-c1ccccc1OC2, the Potency was inconclusive: 20.6 µM [falling, single point].
For O=C(NNC(=O)c1cc(-c2cccc(Br)c2)nc2ccccc12)c1csc(N2CCOCC2)n1, the Potency was inconclusive: 32.6 µM [falling, single point].
For CC1CC(C)CN(C(=O)CCC(=O)Nc2nnc(C3CCCCC3)s2)C1 (stereo not given), the Potency was “inactive”.
With COc1ccc2c(c1)c(C(C)=O)c(C)n2-c1ccccc1 the Potency was inconclusive: 18.4 µM [falling, single point].
With CCN(CC)c1cc(C)c2cc(NC(=O)/C=C/c3ccc(C)cc3)ccc2n1 the activity change, negative = inhibition was inactive: 6.76% [at 9.27 µM].
